PubChem BioAssay AID743458 – Peter MacCallum Cancer Centre, 2014
The deposit covers about 1,800 reagents; shown is a random part of them. Over the whole deposit, 732 (41%) were called active. 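Calls are per siRNA reagent; a gene was deemed confirmed only if most of its four siRNAs scored.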 Reagents against one gene are numbered here.

Screen: 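Identify genes whose loss lifts vorinostat resistance in colon cancer cells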 (follow-up of hits)
Cell system: human HCT116-VR colon cancer cells made resistant to vorinostat
Knock-down reagent: single siRNA or pool against human genes, 25 nM per single siRNA
Timing: about 72 h after transfection, including 24 h of drug
Challenge: vorinostat, 2.5 µM final, for 24 h
Measured: 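Cell viability by fluorescence and apoptosis by caspase 3/7 luminescence under vorinostat, background-corrected, averaged across two plate copies and given as fold change versus mock transfection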
Reading the numbers: viability relative to mock: higher = more living cells than mock; caspase activity relative to mock: higher = more apoptosis than mock
Rule for the call: 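An siRNA counts as active if classed as reduced viability or as caspase activation, otherwise inactive; a hit class needed wells that remained healthy in the absence of drug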

PTGER4 (prostaglandin E receptor 4) #1 scored viability relative to mock 0.34; caspase activity relative to mock 1.95; viability hit class reduced viability; caspase hit class no change; active.
After knock-down of PTGER4 (prostaglandin E receptor 4) #2, the screen gave viability relative to mock 0.94; caspase activity relative to mock 1.02; viability hit class no change; caspase hit class no change; inactive.
Knock-down of PTGER4 (prostaglandin E receptor 4) #3 gave: viability relative to mock 0.73; caspase activity relative to mock 1.96; viability hit class no change; caspase hit class no change; inactive.
With knock-down of PTGER4 (prostaglandin E receptor 4) #4, the record shows viability relative to mock 0.82; caspase activity relative to mock 1.12; viability hit class no change; caspase hit class no change; inactive.
OR10V1 (olfactory receptor family 10 subfamily V member 1) #1 showed viability relative to mock 0.9; caspase activity relative to mock 1.26; viability hit class no change; caspase hit class no change; inactive.
After knock-down of OR10V1 (olfactory receptor family 10 subfamily V member 1) #2, the record shows viability relative to mock 0.99; caspase activity relative to mock 1.09; viability hit class no change; caspase hit class no change; inactive.
OR10V1 (olfactory receptor family 10 subfamily V member 1) #3 showed viability relative to mock 0.81; caspase activity relative to mock 1.53; viability hit class no change; caspase hit class no change; inactive.
After knock-down of OR10V1 (olfactory receptor family 10 subfamily V member 1) #4 the results were viability relative to mock 0.88; caspase activity relative to mock 1.36; viability hit class no change; caspase hit class no change; inactive.
After knock-down of PSMD12 (proteasome 26S subunit, non-ATPase 12) #1, the screen gave viability relative to mock 0.28; caspase activity relative to mock 4.13; viability hit class no change; caspase hit class no change; inactive.
After knock-down of PSMD12 (proteasome 26S subunit, non-ATPase 12) #2, the screen gave viability relative to mock 0.68; caspase activity relative to mock 3.69; viability hit class no change; caspase hit class caspase activation; active.
PSMD12 (proteasome 26S subunit, non-ATPase 12) #3 showed viability relative to mock 0.91; caspase activity relative to mock 1.5; viability hit class no change; caspase hit class no change; inactive.
PSMD12 (proteasome 26S subunit, non-ATPase 12) #4 showed viability relative to mock 0.48; caspase activity relative to mock 3.84; viability hit class reduced viability; caspase hit class caspase activation; active.
MIDEAS (mitotic deacetylase associated SANT domain protein) #1 showed viability relative to mock 0.85; caspase activity relative to mock 4.81; viability hit class no change; caspase hit class caspase activation; active.
Depletion of MIDEAS (mitotic deacetylase associated SANT domain protein) #2 resulted in: viability relative to mock 0.9; caspase activity relative to mock 1.29; viability hit class no change; caspase hit class no change; inactive.
After knock-down of MIDEAS (mitotic deacetylase associated SANT domain protein) #3, the screen gave viability relative to mock 0.82; caspase activity relative to mock 1.66; viability hit class no change; caspase hit class no change; inactive.
With knock-down of MIDEAS (mitotic deacetylase associated SANT domain protein) #4, the screen gave viability relative to mock 0.38; caspase activity relative to mock 4.62; viability hit class reduced viability; caspase hit class caspase activation; active.
After knock-down of DUSP18 (dual specificity phosphatase 18) #1 the results were viability relative to mock 0.85; caspase activity relative to mock 2.06; viability hit class no change; caspase hit class no change; inactive.
Knock-down of DUSP18 (dual specificity phosphatase 18) #2 gave: viability relative to mock 0.79; caspase activity relative to mock 2.64; viability hit class no change; caspase hit class caspase activation; active.
With knock-down of DUSP18 (dual specificity phosphatase 18) #3, the screen gave viability relative to mock 0.86; caspase activity relative to mock 0.84; viability hit class no change; caspase hit class no change; inactive.
DUSP18 (dual specificity phosphatase 18) #4 showed viability relative to mock 0.94; caspase activity relative to mock 1.39; viability hit class no change; caspase hit class no change; inactive.
For ENDOU (endonuclease, poly(U) specific) #1, the values are viability relative to mock 1.08; caspase activity relative to mock 1.46; viability hit class no change; caspase hit class no change; inactive.
ENDOU (endonuclease, poly(U) specific) #2 gave viability relative to mock 0.3; caspase activity relative to mock 2.71; viability hit class reduced viability; caspase hit class caspase activation; active.
After knock-down of ENDOU (endonuclease, poly(U) specific) #3, the record shows viability relative to mock 0.82; caspase activity relative to mock 0.94; viability hit class no change; caspase hit class no change; inactive.
Depletion of ENDOU (endonuclease, poly(U) specific) #4 gave: viability relative to mock 0.94; caspase activity relative to mock 0.92; viability hit class no change; caspase hit class no change; inactive.

Reagents listed so far called active, once more:
PTGER4 (prostaglandin E receptor 4) #1: viability relative to mock = 0.34; caspase activity relative to mock = 1.95; viability hit class = reduced viability; caspase hit class = no change; outcome = active
PSMD12 (proteasome 26S subunit, non-ATPase 12) #2: viability relative to mock = 0.68; caspase activity relative to mock = 3.69; viability hit class = no change; caspase hit class = caspase activation; outcome = active
PSMD12 (proteasome 26S subunit, non-ATPase 12) #4: viability relative to mock = 0.48; caspase activity relative to mock = 3.84; viability hit class = reduced viability; caspase hit class = caspase activation; outcome = active
MIDEAS (mitotic deacetylase associated SANT domain protein) #1: viability relative to mock = 0.85; caspase activity relative to mock = 4.81; viability hit class = no change; caspase hit class = caspase activation; outcome = active
MIDEAS (mitotic deacetylase associated SANT domain protein) #4: viability relative to mock = 0.38; caspase activity relative to mock = 4.62; viability hit class = reduced viability; caspase hit class = caspase activation; outcome = active
DUSP18 (dual specificity phosphatase 18) #2: viability relative to mock = 0.79; caspase activity relative to mock = 2.64; viability hit class = no change; caspase hit class = caspase activation; outcome = active
ENDOU (endonuclease, poly(U) specific) #2: viability relative to mock = 0.3; caspase activity relative to mock = 2.71; viability hit class = reduced viability; caspase hit class = caspase activation; outcome = active
